Reference: patent US20200164071A1
These are yes or no findings as the source states them, for the method shown. Some entries that bind do so weakly or less than the wild type.

By UniProt entry, the sequences of proteins in these tests, tags left out. Where a name states a change or a piece, a line headed by the entry shows the natural chain unless it says otherwise.
UniProt Q495A1: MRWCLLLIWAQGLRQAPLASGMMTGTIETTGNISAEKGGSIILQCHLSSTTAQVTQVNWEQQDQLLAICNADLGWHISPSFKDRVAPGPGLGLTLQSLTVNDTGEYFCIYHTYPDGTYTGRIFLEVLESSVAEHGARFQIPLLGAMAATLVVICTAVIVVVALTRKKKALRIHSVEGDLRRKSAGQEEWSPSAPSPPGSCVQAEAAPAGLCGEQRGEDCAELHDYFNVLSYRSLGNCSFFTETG
UniProt Q15116: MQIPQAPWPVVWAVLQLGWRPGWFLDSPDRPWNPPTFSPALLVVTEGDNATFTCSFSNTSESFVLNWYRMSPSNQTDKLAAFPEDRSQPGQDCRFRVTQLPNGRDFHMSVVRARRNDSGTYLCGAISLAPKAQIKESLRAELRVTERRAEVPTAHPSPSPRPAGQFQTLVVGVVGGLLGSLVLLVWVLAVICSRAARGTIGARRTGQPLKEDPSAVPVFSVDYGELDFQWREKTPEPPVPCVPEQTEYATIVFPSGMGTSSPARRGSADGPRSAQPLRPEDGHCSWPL

B1: T-09 (antibody, V domains shown)
VH: QVTLKESGPTLVKPTQTLTLTCTFSGFSLSTFAMGVGWIRQPPGKALEWLAHIWWDDDKYYNPALKSRLTITKDTSKNQVVLTMTNMDPVDTATYYCARMDYSYFAWFAYWGQGTLVTVSS
VL: QAVVTQEPSLTVSPGGTVTLTCRSSTGAVTTSNYANWVQQKPGQLFRGLIGGTNNRAPWVPARFSGSLIGDKAALTLSGVQPEDEAEYFCALWYSNHWVFGGGTKLTVL
B2: T-04 (antibody, V domains shown)
VH: EVQLVQSGAEVKKPGATVKISCKVSGYTFTDHTIHWVQQAPGKGLEWMGYIYPRDGSSKYNVKFKGRVTITADTSTDTAYMELSSLRSEDTAVYYCATGMLRWFAYWGQGTLVTVSS
VL: DIQMTQSPSSLSASVGDRVTITCKASQDVFTAVAWYQQKPGKAPKLLIYSASYRYTGVPSRFSGSGSGTDFTFTISSLQPEDIATYYCQQHYSIPLTFGAGTKLEIK
B3: T-08 (antibody, V domains shown)
VH: QVQLVQSGSELKKPGASVKVSCKASGYTFTNYGMNWVRQAPGQGLEWMGWINTYTGEPTYADDFKGRFVFSLDTSVSTAYLQISSLKAEDTAVYYCARAPPYGYDVRFAYWGQGTLVTVSS
VL: DVVMTQSPLSLPVTLGQPASISCRSSQSIVHSNGNTYLEWFQQRPGQSPRVLIYKVSDRFSGVPDRFSGSGSGTDFTLKISRVEAEDVGVYYCFQGSHVPWTFGRGTKLEIK
B4: PD-01 mab (antibody, V domains shown)
VH: EVQLVESGGGLVQPGGSLRLSCAASGFTFSNFLMSWVRQAPGKGLEWVSTISGGGRDTYYVDSVKGRFTISRDNSKNTLYLQMNSLRAEDTAVYYCAKRTTYSMDYWGQGTSVTVSS
VL: DIQMTQSPSSVSASVGDRVTITCLASQTIGTWLAWYQQKPGKAPKLLIYAATSLADGVPSRFSGSGSGTDFTLTISSLQPEDFATYYCQQFYSIPWTFGGGTKLEIK
B5: PD-02 mab (antibody, V domains shown)
VH: QVQLVQSGAEVKKPGASVKVSCKASDYTFTNSYLYWLRQAPGQGLEWMGGINPSNGGTNFNEKFKTRTTSTRDTSISTAYMELSRLRSDDTVVYYCTRRDYNYDGGFDSWGQGTLVTVSS
VL: DIQMTQSPSSLSASVGDRVTFTCRASSTLYSNYLHWYQQKPGKAPKLLIYRASFLASGVPSRFSGSGSGTDFTLTISSLQPEDFATYYCQQGSSIPLTFGGGTKVEIK

Key:
[1] = biological target: human TIGIT on CHO-K1 cells (human) (UniProt Q495A1); test: flow cytometry competition assay: PVR (CD155) signal on human TIGIT CHO-K1 cells against titrated antibody (Example 3 names human PVR-human Fc, m15, with PE anti-human Fc)
[2] = biological target: human TIGIT on CHO-K1 cells (human) (UniProt Q495A1); test: flow cytometry blocking assay: biotinylated hPVR-mIg on human TIGIT CHO-K1 cells, PE streptavidin (Examples 4 and 6)
[3] = biological target: human TIGIT on CHO-K1 cells (human) (UniProt Q495A1); test: flow cytometry, CHO-K1 cells expressing human TIGIT (binding assay of Example 5)
[4] = biological target: human TIGIT on CHO-K1 cells (human) (UniProt Q495A1); test: flow cytometry blocking assay of Example 4: biotinylated hPVR-mIg on human TIGIT CHO-K1 cells
[5] = biological target: cyno TIGIT on CHO-K1 cells (cyno); test: flow cytometry, CHO-K1 cells expressing cyno TIGIT (binding assay of Example 5)
[6] = biological target: cyno TIGIT on CHO-K1 cells (cyno); test: flow cytometry blocking assay of Example 4: biotinylated hPVR-mIg on cyno TIGIT CHO-K1 cells
[7] = biological target: His tagged human PD-1 protein (human) (UniProt Q15116); test: BLI (Octet RED96)
[8] = biological target: His tagged human PD-1 protein (human) (UniProt Q15116); test: BLI (Octet RED96), antibody on anti-human IgG capture sensors, PD-1-His as analyte
[9] = biological target: human PD-1 on CHO-K1 cells (human) (UniProt Q15116); test: flow cytometry blocking assay: FITC human PD-L1-Fc on human PD-1 CHO-K1 cells (Examples 11 and 15); title: PD-1 Blocking Activity Screening

Binder	binding [1]	binding [7]	binding [8]	further results
B1	binds	–	–	–
B2	binds	–	–	binding [2]: binds
B3	binds	–	–	binding [3]: binds; binding [4]: binds; binding [5]: binds; binding [6]: binds
B4	–	binds	binds	binding [9]: binds
B5	–	binds	binds	–
